This assay has as its system CRL-1739 cells. Briefly: In vitro cytotoxicity (MTT assay). The conditions noted are these: 48 h, GraphPad Prism. Format: cell-based. How it is done: The cell line was cultured in DMEM supported with 10% fetal bovine serum, 0.5 mg/mL glutamine/penicillin streptomycin at 37 °C and 5% CO2. […] Ninety-six well flat-bottom plates and […] DMEM were used for the seeding procedure. […] Then, 100 μL of MTT solution (5 mg/mL) was put into each well and incubated at 37 °C. The culture medium was removed. Then, 200 μL of dimethysulfoxide was added to obtain the dissolution of the MTT formazan crystals. The absorbance was read at 570 nm using a microplate reader.

Consider `Cc1ccc(NC(=O)c2ccc(CN3CCN(C)CC3)cc2)cc1Nc1nccc(-c2cccnc2)n1` [IMT, Imatinib], for which 9.51 µM corresponded to half-maximal inhibition (IC50).

The values are drawn from publication PMC8778264 (Nanomaterials, 2022).
